Results deposited as PubChem BioAssay AID1259254 (NCATS, 2017).
In all, the deposit lists about 59,000 reagents; this is an unselected part. About 1,550 of all reagents (2.6%) were called active. 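G2 share is only a proxy for re-replication; each gene was hit by three separate siRNAs, and active genes were retested.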 Reagents against one gene are numbered here. Further read-outs or replicates are left out here. The record does not give: the amount of reagent.

Test: 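Finding genes that stop cells copying their DNA twice in one cycle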 (primary screen)
Cell system: human HCT116 colorectal cancer cells
Reagent: single siRNA against human genes
Duration: 3 days
Read-out: 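Nuclei stained with Hoechst and imaged; cell-cycle phase assigned by DNA content; G2 share scaled per plate, non-targeting siRNA 0%, GMNN siRNA 100%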
Reading the numbers: G2 robust z-score: higher = more G2 cells, more excess DNA replication
Active means: 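An siRNA counts as active if its G2 robust z-score lies at least 5 MADs above the screen median; here such calls match roughly 38% of GMNN control or more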

G2 robust z-score, by target gene and reagent
TMEM52B (transmembrane protein 52B): #1 -1.06 inactive; #2 -0.542 inactive; #3 -0.359 inactive
LINC02667 (long independently transcribed non-coding RNA 2667): #1 -0.29 inactive; #2 -0.694 inactive; #3 0.236 inactive
TPST2 (tyrosylprotein sulfotransferase 2): #1 0.95 inactive; #2 0.173 inactive; #3 -1.64 inactive
RBMX2 (RNA binding motif protein X-linked 2): #1 0.233 inactive; #2 -0.764 inactive; #3 -1.35 inactive
SLC44A1: #1 1.32 inactive; #2 -0.51 inactive; #3 0.164 inactive
MRPL19 (mitochondrial ribosomal protein L19): #1 -0.309 inactive; #2 0.00706 inactive; #3 -0.485 inactive
KLK2 (kallikrein related peptidase 2): #1 -1.49 inactive; #2 4.03 inactive; #3 1.79 inactive
UGT2A3 (UDP glucuronosyltransferase family 2 member A3): #1 0.393 inactive; #2 2.13 inactive; #3 1.36 inactive
IGSF21 (immunoglobin superfamily member 21): #1 0.899 inactive; #2 1.98 inactive; #3 -0.68 inactive
MRPS35 (mitochondrial ribosomal protein S35): #1 -1.42 inactive; #2 0.386 inactive; #3 0.438 inactive
GDF5 (growth differentiation factor 5): #1 0.848 inactive; #2 -0.672 inactive; #3 -0.392 inactive
LARP1BP1 (LARP1B pseudogene 1): #1 -0.0057 inactive; #2 -0.239 inactive; #3 -0.966 inactive
ANP32B (acidic nuclear phosphoprotein 32 family member B): #1 0.391 inactive; #2 -1.06 inactive; #3 -0.722 inactive
APPL1: #1 0.213 inactive; #2 -0.658 inactive; #3 -1.04 inactive
IVNS1ABP (influenza virus NS1A binding protein): #1 -0.537 inactive; #2 1.37 inactive; #3 0.874 inactive
DNALI1 (dynein axonemal light intermediate chain 1): #1 -0.172 inactive; #2 -0.0165 inactive; #3 -1.02 inactive
CENATAC (centrosomal AT-AC splicing factor): #1 -0.502 inactive; #2 0.169 inactive; #3 -0.0922 inactive
PRORSD1P: #1 0.2 inactive; #2 -0.705 inactive; #3 -0.41 inactive
MYL6P5 (MYL6 pseudogene 5): #1 -0.128 inactive; #2 1.41 inactive; #3 -0.994 inactive
FOLR1 (folate receptor alpha): #1 1.34 inactive; #2 0.132 inactive; #3 7.01 active
LPAR1 (lysophosphatidic acid receptor 1): #1 1.65 inactive; #2 -0.535 inactive; #3 -0.0793 inactive
PLEKHA4 (pleckstrin homology domain containing A4): #1 1.01 inactive; #2 0.88 inactive; #3 -0.628 inactive
GPR156 (G protein-coupled receptor 156): #1 -0.0677 inactive; #2 0.388 inactive; #3 -0.572 inactive

Called active, of those listed so far:
G2 robust z-score, by target gene and reagent
FOLR1 (folate receptor alpha): #3 7.01 active
